# Assay results: PMC11589570, “Critical assessment of LC3/GABARAP ligands used for degrader development and ligandability of LC3/GABARAP binding pockets” (Nature Communications, 2024)
# Values joined by “and” are separate entries in the source; they are usually repeats but may differ in a detail not shown here. Equal values may be shown once. The source gives many values for each of these; only a part stands here.
# Tested on: U2OS cells
# Test: Cell growth assay (IncuCyte confluence over 72 h)
# Format: cell-based
# Parameters: key: % of well area covered by cells (confluence)
# Conditions: listed as AN2
# Experimental: Cell growth assay: Cell confluence (phase) from RPE1 (hTERT RPE-1, ATCC CLR_4000) or U2OS (ATCC, HTB-96) cell lines were monitored over time with the IncuCyte S3 (Sartiorius, Germany) in 384-well plates in 50 ul DMEM media, supplemented with 10% Fetal Bovine Serum (FBS) 1% penicillin/Streptomycin and incubated 24 h before treatment. Experiment was performed as described in Cano-Franco et al.. […] Cell confluence is represented as % of area covered by cells. Each data point represents the average ratio or confluence obtained from three individual wells of the plate.
smiles,measurement,setting,value
O=c1cc(-c2ccccc2)c2c(O)cc(O)cc2o1 [compound 2],U2OS cell growth,"100 nM, time 12 h",34.3423 and 38.3293 and 32.538
same,U2OS cell growth,"100 nM, time 14 h",35.477 and 39.741 and 36.4964
same,U2OS cell growth,"100 nM, time 16 h",37.5326 and 46.1001 and 39.0596
same,U2OS cell growth,"100 nM, time 18 h",40.4627 and 48.8702 and 35.6284
same,U2OS cell growth,"100 nM, time 20 h",44.6709 and 45.0971 and 41.9388
same,U2OS cell growth,"100 nM, time 22 h",43.4234 and 54.7584 and 46.3049
same,U2OS cell growth,"100 nM, time 24 h",44.0555 and 57.1247 and 42.0827
same,U2OS cell growth,"100 nM, time 26 h",47.7103 and 58.3648 and 50.2935
same,U2OS cell growth,"100 nM, time 28 h",53.5819 and 61.2432 and 48.7471
same,U2OS cell growth,"100 nM, time 30 h",48.7233 and 63.9047 and 49.197
same,U2OS cell growth,"100 nM, time 32 h",58.2927 and 62.0443 and 60.2496
same,U2OS cell growth,"100 nM, time 34 h",59.4673 and 70.7378 and 66.2512
same,U2OS cell growth,"100 nM, time 36 h",56.9666 and 70.4292 and 57.2311
same,U2OS cell growth,"100 nM, time 38 h",70.6752 and 77.1372 and 72.8151
same,U2OS cell growth,"100 nM, time 40 h",60.4802 and 74.9999 and 59.8685
same,U2OS cell growth,"100 nM, time 42 h",61.7718 and 79.8159 and 68.5707
same,U2OS cell growth,"100 nM, time 44 h",77.2652 and 81.5206 and 77.0732
same,U2OS cell growth,"100 nM, time 46 h",72.1626 and 78.4794 and 67.8392
same,U2OS cell growth,"100 nM, time 48 h",73.864 and 86.5187 and 78.6619
same,U2OS cell growth,"100 nM, time 50 h",77.3939 and 88.7182 and 76.3855
same,U2OS cell growth,"100 nM, time 52 h",76.6283 and 91.2888 and 80.9609
same,U2OS cell growth,"100 nM, time 54 h",86.1144 and 89.7354 and 90.3047
same,U2OS cell growth,"100 nM, time 56 h",86.2269 and 94.4191 and 81.7281
same,U2OS cell growth,"100 nM, time 58 h",85.0839 and 95.5732 and 89.3513
same,U2OS cell growth,"100 nM, time 60 h",97.2305 and 98.5479 and 98.1519
same,U2OS cell growth,"100 nM, time 62 h",90.5339 and 96.8128 and 92.4939
same,U2OS cell growth,"100 nM, time 64 h",92.4611 and 96.1155 and 94.919
same,U2OS cell growth,"100 nM, time 66 h",92.9609 and 97.0174 and 92.4805
same,U2OS cell growth,"100 nM, time 68 h",93.5362 and 99.5096 and 94.9483
same,U2OS cell growth,"100 nM, time 70 h",97.821 and 98.7842 and 95.4507
same,U2OS cell growth,"100 nM, time 72 h",96.6913 and 98.9826 and 93.4854
same,U2OS cell growth,"500 nM, time 12 h",47.1284 and 43.5481 and 39.0428
same,U2OS cell growth,"500 nM, time 14 h",49.5409 and 49.1387 and 42.0975
same,U2OS cell growth,"500 nM, time 16 h",55.7175 and 52.245 and 48.6905
same,U2OS cell growth,"500 nM, time 18 h",55.6236 and 52.599 and 48.546
same,U2OS cell growth,"500 nM, time 20 h",53.0213 and 55.366 and 47.3648
same,U2OS cell growth,"500 nM, time 22 h",62.5761 and 54.1744 and 45.7257
same,U2OS cell growth,"500 nM, time 24 h",65.2798 and 60.0343 and 52.802
same,U2OS cell growth,"500 nM, time 26 h",66.2082 and 62.2524 and 57.7172
same,U2OS cell growth,"500 nM, time 28 h",66.0407 and 65.7812 and 56.545
same,U2OS cell growth,"500 nM, time 30 h",67.1951 and 62.4895 and 64.6895
same,U2OS cell growth,"500 nM, time 32 h",68.2031 and 68.0485 and 57.2869
same,U2OS cell growth,"500 nM, time 34 h",71.4453 and 71.9788 and 67.232
same,U2OS cell growth,"500 nM, time 36 h",76.2204 and 71.0328 and 69.6923
same,U2OS cell growth,"500 nM, time 38 h",80.7 and 79.9069 and 75.8523
same,U2OS cell growth,"500 nM, time 40 h",86.4278 and 80.9253 and 76.5176
same,U2OS cell growth,"500 nM, time 42 h",85.4718 and 77.5726 and 80.0637
same,U2OS cell growth,"500 nM, time 44 h",87.8795 and 85.8834 and 85.7665
same,U2OS cell growth,"500 nM, time 46 h",84.3372 and 82.7204 and 76.036
same,U2OS cell growth,"500 nM, time 48 h",90.2037 and 90.173 and 87.5361
same,U2OS cell growth,"500 nM, time 50 h",90.926 and 89.6499 and 89.2282
same,U2OS cell growth,"500 nM, time 52 h",93.0151 and 91.88 and 90.454
same,U2OS cell growth,"500 nM, time 54 h",93.5517 and 91.3108 and 88.0622
same,U2OS cell growth,"500 nM, time 56 h",95.1988 and 91.5945 and 93.4435
same,U2OS cell growth,"500 nM, time 58 h",96.3749 and 95.7072 and 95.5313
same,U2OS cell growth,"500 nM, time 60 h",98.1371 and 97.1435 and 98.0383
same,U2OS cell growth,"500 nM, time 62 h",96.9808 and 96.3633 and 97.3892
same,U2OS cell growth,"500 nM, time 64 h",97.3563 and 98.342 and 96.5917
same,U2OS cell growth,"500 nM, time 66 h",98.6951 and 98.2083 and 98.321
same,U2OS cell growth,"500 nM, time 68 h",99.0579 and 99.2791 and 98.7257
same,U2OS cell growth,"500 nM, time 70 h",99.2172 and 99.0058 and 98.0474
same,U2OS cell growth,"500 nM, time 72 h",99.3835 and 97.9774 and 98.1535
same,U2OS cell growth,"1 uM, time 12 h",52.6588 and 56.1691
same,U2OS cell growth,"1 uM, time 14 h",51.9925 and 52.7616 and 54.7585
same,U2OS cell growth,"1 uM, time 16 h",56.6031 and 55.0152 and 61.691
same,U2OS cell growth,"1 uM, time 18 h",53.5235 and 58.7802 and 62.5194
same,U2OS cell growth,"1 uM, time 20 h",51.6313 and 54.693 and 62.941
same,U2OS cell growth,"1 uM, time 22 h",57.6685 and 62.7904 and 65.694
same,U2OS cell growth,"1 uM, time 24 h",56.205 and 62.4356 and 67.5479
same,U2OS cell growth,"1 uM, time 26 h",62.9207 and 67.4036 and 73.4542
same,U2OS cell growth,"1 uM, time 28 h",65.6927 and 67.0993 and 74.4534
same,U2OS cell growth,"1 uM, time 30 h",75.0077 and 69.5357 and 80.2321
same,U2OS cell growth,"1 uM, time 32 h",71.09 and 73.7077 and 83.8866
same,U2OS cell growth,"1 uM, time 34 h",70.7522 and 76.3884 and 80.7929
same,U2OS cell growth,"1 uM, time 36 h",78.8432 and 79.3635 and 85.9791
same,U2OS cell growth,"1 uM, time 38 h",81.5973 and 78.4608 and 85.3992
same,U2OS cell growth,"1 uM, time 40 h",83.0458 and 87.166 and 90.2856
same,U2OS cell growth,"1 uM, time 42 h",87.5927 and 84.0348 and 91.3184
same,U2OS cell growth,"1 uM, time 44 h",90.4866 and 90.4435 and 93.7263
same,U2OS cell growth,"1 uM, time 46 h",86.8913 and 89.1886 and 91.2268
same,U2OS cell growth,"1 uM, time 48 h",93.4668 and 93.1697 and 95.6703
same,U2OS cell growth,"1 uM, time 50 h",90.5037 and 92.7974 and 94.6171
same,U2OS cell growth,"1 uM, time 52 h",94.4565 and 94.6327 and 96.5524
same,U2OS cell growth,"1 uM, time 54 h",95.1136 and 94.9498 and 97.5229
same,U2OS cell growth,"1 uM, time 56 h",97.0429 and 98.2943 and 97.7676
same,U2OS cell growth,"1 uM, time 58 h",97.7194 and 97.1073 and 98.1507
same,U2OS cell growth,"1 uM, time 60 h",99.3852 and 99.6841 and 99.7561
same,U2OS cell growth,"1 uM, time 62 h",98.8771 and 99.2249 and 99.2461
same,U2OS cell growth,"1 uM, time 64 h",98.9508 and 99.5485 and 99.5018
same,U2OS cell growth,"1 uM, time 66 h",99.536 and 99.4067 and 99.8248
same,U2OS cell growth,"1 uM, time 68 h",99.4416 and 99.1046 and 99.7676
same,U2OS cell growth,"1 uM, time 70 h",99.5903 and 99.8534 and 99.5556
same,U2OS cell growth,"1 uM, time 72 h",99.5245 and 99.4087 and 99.4205
